The source of these data is article PMC7113585.

These are yes or no findings as the source states them, for the method shown. Binding seen in cells or lysates may run through a third protein. Here binding means that the protein was enriched with, or labelled near, the bait; the list need not be complete.

This assay has as its target T1, Tp0751 (E115-P237), lipocalin fold only (Treponema pallidum subsp. pallidum) (UniProt O83732).
T1 sequence: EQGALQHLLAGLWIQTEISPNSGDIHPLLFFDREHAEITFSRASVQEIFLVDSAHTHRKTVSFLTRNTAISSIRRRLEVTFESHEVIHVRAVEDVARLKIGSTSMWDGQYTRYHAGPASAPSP
The experiment in a line: affinity purification with mass spectrometry; His-tagged Tp0751 (E115-P237), 150 ug, immobilised on cobalt chelate; hCMEC/d3 membrane and membrane-associated proteins as prey, 16 h at 4°C, TBS with 0.5% CHAPS; eluted with 290 mM imidazole; in-solution digestion, LC-MS/MS; unconjugated column as control; only the target purified.

B1: Stomatin (erythrocyte band 7 integral membrane protein), endogenous in hCMEC/d3 cells (protein, UniProt P27105 1-288)
chain: MAEKRHTRDSEAQRLPDSFKDSPSKGLGPCGWILVAFSFLFTVITFPISIWMCIKIIKEYERAIIFRLGRILQGGAKGPGLFFILPCTDSFIKVDMRTISFDIPPQEILTKDSVTISVDGVVYYRVQNATLAVANITNADSATRLLAQTTLRNVLGTKNLSQILSDREEIAHNMQSTLDDATDAWGIKVERVEIKDVKLPVQLQRAMAAEAEASREARAKVIAAEGEMNASRALKEASMVITESPAALQLRYLQTLTTIAAEKNSTIVFPLPIDMLQGIIGAKHSHLG
As for B1, the binding result is given as “binds”.
